This is an account of results in publication PMC12430012.

Protein sequences, listed by entry. Tags and fused reporters are not part of them. Lines headed by an entry give the natural chain unless they say otherwise; changes in a name come on top. Chains listed by the source or under a name are the forms on record and can include a tag or linker.
FLAG-tagged DNAJB11 T188E (Q9UBS4, form named): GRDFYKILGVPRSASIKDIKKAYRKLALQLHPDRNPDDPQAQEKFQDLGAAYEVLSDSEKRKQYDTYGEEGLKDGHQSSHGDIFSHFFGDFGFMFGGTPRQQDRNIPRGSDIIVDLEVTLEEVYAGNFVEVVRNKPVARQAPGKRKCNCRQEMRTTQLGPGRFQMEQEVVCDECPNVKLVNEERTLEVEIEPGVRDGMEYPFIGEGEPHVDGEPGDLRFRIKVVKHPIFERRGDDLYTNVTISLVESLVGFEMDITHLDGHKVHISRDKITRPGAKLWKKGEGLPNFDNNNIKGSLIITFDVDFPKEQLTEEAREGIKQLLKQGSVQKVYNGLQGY
FLAG-tagged DNAJB11 T188A (Q9UBS4, form named): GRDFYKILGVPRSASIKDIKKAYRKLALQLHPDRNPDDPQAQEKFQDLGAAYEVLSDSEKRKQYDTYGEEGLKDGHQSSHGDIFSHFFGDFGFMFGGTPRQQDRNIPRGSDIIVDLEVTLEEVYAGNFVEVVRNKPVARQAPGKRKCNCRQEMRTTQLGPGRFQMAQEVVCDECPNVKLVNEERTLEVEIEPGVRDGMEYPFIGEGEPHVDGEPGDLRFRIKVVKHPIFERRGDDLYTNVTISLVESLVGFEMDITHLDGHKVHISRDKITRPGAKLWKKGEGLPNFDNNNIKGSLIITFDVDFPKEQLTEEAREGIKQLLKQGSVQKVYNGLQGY

For assay [1], the target named is FLAG-tagged DNAJB11 T188E (human) (UniProt Q9UBS4). The experiment in a line: co-IP; cells expressing FLAG-tagged DNAJB11, T188A or T188E with tau^P301L or TTR^A25T, 10 μM etoposide 48 h; immunoprecipitates probed with anti-GFP or anti-FLAG.
Assay [2] addresses FLAG-tagged DNAJB11 T188A (human) (UniProt Q9UBS4). The assay is described as above.

Results are given in words; binding and its absence hold for the method and conditions named. In cells and extracts the contact can be indirect.

tau^P301L-GFP (from UniProt P10636-8): the binding result in assay [1] and in assay [2] was “no binding” in each case.
